# Test results taken from US7589086B2, “Substituted pyrazolo[3,4-D]pyrimidines as anti-tumor agents” (Universita degli Studi di Siena, priority 2003, dated 2009).
# Some entries share one result that the patent states for a list of compounds.
# System: K562 cells
# Experiment: Cell proliferation assay, K562
# Type: cell-based, human
# Conditions: compounds 0-100 μM, means ± SEM
# Method: MEG-01 and K562 (2×10^4 cells/mL) were incubated in 100 μL RPMI 1640 culture medium (BioWhittaker, Vallensbaek, DK), supplemented with 10% foetal calf serum (FCS; BioWhittaker, Vallensbaek, DK) and antibiotics (100 U/mL penicillin and 100 μg/mL streptomycin), at 37° C. in 5% CO2. After an overnight incubation with 100 μL medium supplemented with 0.5% FCS, the medium was replaced and 100 μL RPMI 1640 with 10% FCS along with different concentrations (0-100 μM) of the studied compounds, were added to cell cultures.
compound,measurement,value
CCCCNc1nc(SCC)nc2c1cnn2CC(Cl)c1ccccc1 (stereo not shown) [Compound 2c],IC50,< 50 µM
